Like-named read-outs stand apart in the source and are kept apart here.
Test: Amiodarone quantification in tissues by LC/MS after pericardial repair with amiodarone-soaked EBM patch, or IV amiodarone control, ovine model
Format: in vivo
Details: sheep; for concentration at 3 day / concentration at 28 day: 300 mg
Text: Specifically, EBM under the tradename CardiaMend™ was used. The device was approximately 1 mm thick (range 0.75-1.54 mm). An ovine model was used for a pericardial repair procedure. […] The EBM patch was then inserted through a hole cut through the pericardium via a mini-thoracotomy approach and secured with sutures at the margins of the pericardial defect. Following closure of the superficial muscle and skin, the animals were recovered, and housed until sacrifice at 3 days, 7 days, and 28 days. […] Following sacrifice, the repair site was explored, and the implant and heart were grossly evaluated for signs of inflammation, scarring, or fibrosis. Gross images were acquired.

CCCCc1oc2ccccc2c1C(=O)c1cc(I)c(OCCN(CC)CC)c(I)c1 [Amiodarone, amiodarone]
concentration at 3 day (EBM 7 cm by 10 cm soaked in 6 mL of 50 mg/mL amiodarone hydrochloride, pericardial patch, myocardium, day 3, read-out: Amiodarone concentration, Myocardium, Day 3 Average): 64000 ng/g
concentration at 3 day (liver, amiodarone-soaked EBM pericardial patch, liver, day 3, read-out: Amiodarone concentration, Liver, Day 3 Average): 2610 ng/g
concentration at 28 day (liver, amiodarone-soaked EBM pericardial patch, liver, day 28, read-out: Amiodarone concentration, Liver, Day 28 Average): 20 ng/g
concentration at 3 day (myocardium, amiodarone-soaked EBM pericardial patch, myocardium, day 3, range, read-out: Range of amiodarone tissue concentrations in the myocardium, 3 days): 7300 to 158000 ng/g
concentration at 28 day (myocardium, amiodarone-soaked EBM pericardial patch, myocardium, day 28, read-out: Amiodarone concentration, Myocardium, Day 28 Average): 7800 ng/g
concentration at 3 day (plasma, amiodarone-soaked EBM pericardial patch, blood plasma, day 3, read-out: Amiodarone concentration, Blood Plasma, Day 3 Average): 2550 ng/g
concentration at 28 day (plasma, amiodarone-soaked EBM pericardial patch, blood plasma, day 28, read-out: Amiodarone concentration, Blood Plasma, Day 28 Average): 0 ng/g
Amiodarone concentration, Blood Plasma, Day 28 Average (amiodarone-soaked EBM pericardial patch, blood plasma, day 28): below the limit of detection
Amiodarone concentration, Myocardium, Day 28 Average (amiodarone-soaked EBM pericardial patch, myocardium, day 28): 7.82 µg/g

From patent US20250090493A1, “THERAPEUTIC COMPOSITION DELIVERY DEVICE” (Helios Cardio Inc., priority 2021, published 2025)
